For assay [1], the target named is CK1δ, endogenous in MDA-MB-231 (human (endogenous in MDA-MB-231)) (UniProt P48730). Briefly: co-IP; endogenous proteins of unmanipulated MDA-MB-231 cells; RIPA lysate; IgG or anti-CK1δ antibody with protein G beads, 4 °C overnight; immunoblot. A general note: In western blotting, separated proteins are transferred to a membrane and probed.
The next assay concerns the target LRP6-V5 (human) (UniProt O75581). Briefly: co-IP; HEK293T transfected with tagged proteins; RIPA lysate; anti-Flag or anti-V5 agarose beads, 4 °C overnight; four washes with RIPA; immunoblot; for CK1δ-V5 and CK1ε-V5 with or without co-expressed TMEM97-Flag.
Assay [2] concerns the target LRP6, endogenous in HEK293T (human (endogenous in HEK293T)) (UniProt O75581). Nature of the assay: co-IP; endogenous proteins of HEK293T (untransfected, or transfected with TMEM97-Flag); RIPA lysate; control IgG or anti-LRP6, anti-CK1δ or anti-CK1ε antibody with protein G beads, 4 °C overnight; immunoblot.

Sequences of proteins named here, by UniProt entry; tags and fusion partners are left off. A change or cut given only in a name is not applied to a line headed by its entry. Residues count along the entry.
UniProt P48730: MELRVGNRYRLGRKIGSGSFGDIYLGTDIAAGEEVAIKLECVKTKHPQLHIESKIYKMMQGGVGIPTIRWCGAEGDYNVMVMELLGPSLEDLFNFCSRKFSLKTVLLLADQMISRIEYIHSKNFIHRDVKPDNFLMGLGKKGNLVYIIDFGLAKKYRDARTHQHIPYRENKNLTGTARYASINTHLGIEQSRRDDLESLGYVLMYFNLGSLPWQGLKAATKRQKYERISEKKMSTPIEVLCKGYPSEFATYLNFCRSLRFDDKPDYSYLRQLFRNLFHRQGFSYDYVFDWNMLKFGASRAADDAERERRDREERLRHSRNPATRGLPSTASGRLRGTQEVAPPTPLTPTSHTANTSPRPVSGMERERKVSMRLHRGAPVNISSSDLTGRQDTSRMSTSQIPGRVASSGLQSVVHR
UniProt O75581, residues 20-1613: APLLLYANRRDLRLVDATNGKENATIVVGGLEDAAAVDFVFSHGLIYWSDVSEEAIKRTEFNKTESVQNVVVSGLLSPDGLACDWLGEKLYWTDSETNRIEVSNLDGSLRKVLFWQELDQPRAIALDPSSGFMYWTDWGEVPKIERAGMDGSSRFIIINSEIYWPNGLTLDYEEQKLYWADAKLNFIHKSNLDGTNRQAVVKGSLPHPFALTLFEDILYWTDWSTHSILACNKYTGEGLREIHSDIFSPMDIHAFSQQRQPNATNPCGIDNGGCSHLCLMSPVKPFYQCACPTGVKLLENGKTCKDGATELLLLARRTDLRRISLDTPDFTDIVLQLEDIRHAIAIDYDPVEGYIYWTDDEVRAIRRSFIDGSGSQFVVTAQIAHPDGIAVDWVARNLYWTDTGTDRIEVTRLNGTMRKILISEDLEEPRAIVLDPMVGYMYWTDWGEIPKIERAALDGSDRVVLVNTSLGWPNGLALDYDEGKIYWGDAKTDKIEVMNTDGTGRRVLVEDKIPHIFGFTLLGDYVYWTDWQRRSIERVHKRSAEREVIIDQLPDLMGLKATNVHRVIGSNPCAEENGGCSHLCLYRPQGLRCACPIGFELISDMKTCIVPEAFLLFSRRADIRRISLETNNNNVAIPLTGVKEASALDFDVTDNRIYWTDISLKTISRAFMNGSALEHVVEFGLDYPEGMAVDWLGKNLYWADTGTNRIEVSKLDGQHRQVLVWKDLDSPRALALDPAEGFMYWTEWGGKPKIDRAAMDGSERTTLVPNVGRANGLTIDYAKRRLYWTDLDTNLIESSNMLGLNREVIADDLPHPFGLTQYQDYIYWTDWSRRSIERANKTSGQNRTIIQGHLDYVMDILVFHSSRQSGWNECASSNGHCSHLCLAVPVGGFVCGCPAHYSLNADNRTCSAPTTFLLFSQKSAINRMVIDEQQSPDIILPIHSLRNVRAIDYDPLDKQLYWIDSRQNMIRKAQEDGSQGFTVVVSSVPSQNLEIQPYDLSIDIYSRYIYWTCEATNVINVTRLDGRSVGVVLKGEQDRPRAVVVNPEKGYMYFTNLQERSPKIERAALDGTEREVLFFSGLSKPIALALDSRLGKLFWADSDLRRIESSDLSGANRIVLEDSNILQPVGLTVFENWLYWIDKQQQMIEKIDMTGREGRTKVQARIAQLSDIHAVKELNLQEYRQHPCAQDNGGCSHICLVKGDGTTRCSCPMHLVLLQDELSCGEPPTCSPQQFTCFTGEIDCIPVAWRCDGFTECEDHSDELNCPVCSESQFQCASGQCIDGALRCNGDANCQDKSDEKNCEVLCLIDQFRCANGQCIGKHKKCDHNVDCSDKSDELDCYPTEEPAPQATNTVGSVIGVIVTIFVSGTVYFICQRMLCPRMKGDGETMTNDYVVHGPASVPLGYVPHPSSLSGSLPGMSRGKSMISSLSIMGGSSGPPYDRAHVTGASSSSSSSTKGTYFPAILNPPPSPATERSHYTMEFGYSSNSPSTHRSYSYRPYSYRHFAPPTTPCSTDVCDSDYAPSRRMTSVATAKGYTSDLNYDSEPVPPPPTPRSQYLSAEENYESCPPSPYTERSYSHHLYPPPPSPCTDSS
UniProt Q5BJF2: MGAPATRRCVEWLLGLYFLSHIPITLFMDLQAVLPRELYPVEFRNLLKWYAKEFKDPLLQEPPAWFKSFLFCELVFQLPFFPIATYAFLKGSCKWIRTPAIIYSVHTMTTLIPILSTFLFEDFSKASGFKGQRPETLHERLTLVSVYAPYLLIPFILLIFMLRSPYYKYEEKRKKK

Results are given in words; binding and its absence hold for the method and conditions named. In cells and extracts the contact can be indirect. Some results given as binding are weak or reduced against the parent protein; the word gives no strength.

For the substance “TMEM97, endogenous in MDA-MB-231 (from UniProt Q5BJF2 1-176)”, the binding result in assay [1] was “binds”.
TMEM97-Flag (from UniProt Q5BJF2 1-176): in the assay with LRP6-V5 (human), the binding entry is “binds”.
With “Transmembrane protein 97 (TMEM97), endogenous in HEK293T (from UniProt Q5BJF2 1-176)”, the binding result in assay [2] is “binds”.

Source of the values: publication PMC8494741.
